# Source: PubChem BioAssay AID901 (National Center for Advancing Translational Sciences (NCATS), 2007)
# The other results are listed elsewhere or left out. The main result of the screen is listed elsewhere. These columns were measured beside it and carry no call. Most of these compounds were active or inconclusive in the main read-out, so they are no random draw. Potencies come from curve fits of mixed quality, noted in brackets.
# Test: qHTS Assay for Identifying the Cell-Membrane Permeable IMPase Inhibitors
# Details: CHO-M1 cells, IP1 accumulation, HTRF TR-FRET ratio; measured here: donor channel 620 nm AC50
# From the text: NCGC IMPase Assay Overview
# Lithium has been widely used for the treatment of bipolar disorder. But lithium has a narrow therapeutic index and it can cause side effects such as thirst, weight gain, tremor, polyuria and memory problems. Although the mechanism for lithium action in treatment of bipolar disorder is still not fully understood, inhibition of inositol monophosphatase (IMPase) and the subsequent depletion of the inositol pool in living cells have been implicated as the primary therapeutic benefit of lithium therapy. Therefore, a selective IMPase inhibitor with reduced side effects might be a good drug candidate to replace lithium for the treatment of bipolar disorder. Several IMPase inhibitors have been discovered previously. However, they are not suitable for therapeutic use because of their poor cell membrane penetrability or oral bioavailability; the development of new cell-permeable IMPase inhibitors is needed.
# IMPase catalyzes the hydrolysis of inositol-1-phosphate (IP1) to release free inositol. Binding of an agonist to a Gq coupled GPCR results in the activation of PLC, which hydrolyzes the PIP2 to form inositol-1,4,5-trisphosphate (IP3) and diacyl glycerol (DAG). While DAG activates protein kinase C (PKC), IP3 triggers the elevation of intracellular free Ca2+. The IP3 is very rapidly inactivated by hydrolysis to IP2, IP1 and then inositol by a series of enzymes including IMPase. Free inositols are used for synthesis of PI and thus start another inositol cycle.
# To identify new cell-permeable IMPase inhibitors, we developed a cell-based IMPase assay in which the cytosolic IP1 is measured by a time-resolved fluorescence resonance energy transfer (TR-FRET) assay. In this assay, an IP1 specific antibody is used to detect the labeled IP1 tracer. When the cell lysate contains the elevated IP1 due to the inhibition of IMPase, the TR-FRET between the labeled antibody and IP1 tracer is disrupted resulting in a reduction in the total signal. Since the TR-FRET is used, this cell-based assay is a homogenous assay without cell wash and medium change that is suitable for assay miniaturization and HTS.
# NCGC IMPase Assay Protocol Summary
# A Chinese hamster ovary (CHO) cell line stably expressing the M1 receptor (CHO-M1) was obtained from ATCC and maintained in F-12 Kaighn's media (Invitrogen, Carlsbad, CA, 21127) supplemented with 10 % FBS, 100 units/ml penicillin, 100 ug/ml streptomycin and 250 ug/ml geneticin at 37C, 5% CO2 in a humidified atmosphere. Before the assay, aliquots of cells were frozen and stored at -135C. The assay was performed in 1536-well format. Data are reported for both the ratio of the two emission wavelengths, and also for the component 'donor' channel, Em2=620. […] AC50 values were determined from concentration-response data modeled with the standard Hill equation.
# IMPase 1536-well assay protocol:
# (1) Plate 4 ul/well (2000 cells) of cell suspension from frozen CHO-M1 Cells in white, tissue culture treated 1536-well plates that are cultured at 37C, 5 % CO2 for 16 to 30 hours.
# (2) Add 23 nl/well of compound in DMSO solution. The final titration for each compound was between 0.6 nM and 46 uM.
# (3) Add 1 ul of carbachol (50 uM in stimulation buffer containing10mM HEPES, 1mM CaCl2, 0.5 mM MgCl2, 4.2 mM KCl, 146 mM NaCl, 5.5 mM glucose, 50mM LiCl, pH 7.4.
# (4) Incubation at 37C, 5 % CO2 for 30 min.
# (5) Add 1 ul/well of d2-conjugated IP1 (d2-IP1) and 1 ul/well of Eu+ cryptate conjugated anti-IP1 antibody (Eu+-Ab) prepared in the cell lysis buffer, both from the IP-One kit (Cisbio, MA).
# (6) Incubate at room temperature for 10 minutes.
# (7) Detect the assay plate (Ex = 320, Em1 =665 and Em2 620) in a ViewLux plate reader.
# inositol monophosphatase, IMPase, IMPase inhibitor, lithium, bipolar disorder, IP-One, HTRF, qHTS, NIH roadmap, NCGC
# Note: In the gene ID and protein GI references for this assay, rat IMPase is referenced instead of hampster as hamster accession numbers were not available.
row,Compound,AC50
1,CN1C2CCC1/C(=C\c1ccccc1Cl)C(=O)/C2=C\c1ccccc1Cl,"5.62 µM [falling, partial curve, poor fit]"
2,Cc1ccnc(NS(=O)(=O)c2ccc(NC(=O)c3ccc(C)c(C)c3)cc2)n1,"2.24 µM [falling, partial curve]"
3,Cc1ccc(-c2n[nH]c(=S)n2/N=C/C=C\c2ccccc2[N+](=O)[O-])cc1,"12.6 µM [falling, partial curve]"
4,NC1=NC2(CCCCC2)N(c2ccc(F)cc2)C(N)=N1,"1 µM [falling, full curve]"
5,OC(COc1ccc2ccccc2c1)Cn1cncn1 (configuration not stated),"6.31 µM [rising, single point]"
6,O=C(O)c1cc(NC(=O)C2CCCO2)cc(NC(=O)C2CCCO2)c1 (configuration not stated),"0.0224 µM [falling, full curve, poor fit]"
7,CCN(CCCNC(=O)CNC(=O)Cn1cnc2ccccc2c1=O)c1cccc(C)c1,"0.112 µM [falling, full curve]"
8,COC(=O)c1ccc(Cn2cnc3c(cnn3-c3ccc(F)cc3)c2=O)o1,"6.31 µM [rising, partial curve]"
9,CCOC(=O)c1sc(NC(=O)c2ccc3ncsc3c2)nc1C,"31.6 µM [rising, single point]"
10,Cc1ccc2nc(N3C(=O)C(O)=C(C(=O)c4cc5ccccc5o4)C3c3cccs3)sc2c1 (configuration not stated),"12.6 µM [rising, partial curve]"
11,Cc1cc(C)c2nc(NC3=NCN(CCN4CCOCC4)CN3)nc(C)c2c1,"0.0251 µM [rising, full curve, poor fit]"
12,CCCCCCCc1nc2c(=O)n(C)c3ccccc3c2o1,"31.6 µM [rising, single point]"
13,O=C(Nc1sc2c(c1C(=O)NC1CCCCC1)CCC2)c1ccco1,"31.6 µM [falling, single point]"
14,N#Cc1c(-c2ccco2)nc(SCC(=O)Nc2cccc(Cl)c2)[nH]c1=O,"12.6 µM [rising, partial curve]"
15,Cc1ccc(N=C2NC(=O)C(CC(=O)O)S2)cc1 (configuration not stated),"3.98 µM [falling, single point]"
16,CN1C=CC=C/C1=C(\C#N)c1nc2ccccc2[nH]1,"12.6 µM [falling, partial curve]"
17,CC(C)CC(O)(CC(C)C)C(=O)NNc1ccccc1,"3.16 µM [falling, single point]"
18,CCc1ccc(NC(=O)COc2ccc(F)cc2C(=O)c2cnn(-c3ccccc3)c2)cc1,"20 µM [rising, single point]"
19,Cc1cc(C)n(CC(O)Cn2cnc3c2c(=O)n(C)c(=O)n3C)n1 (configuration not stated),"0.0501 µM [rising, full curve, poor fit]"
20,CCOC(=O)c1nn(-c2ccccc2)c(C#N)c1NC(=O)c1nn(CC)cc1Br,"3.55 µM [rising, single point]"
21,CC(=O)c1sc(Nc2nc3ccc(F)cc3s2)nc1C,"2.51 µM [rising, partial curve, poor fit]"

# Arranged by length of the SMILES (low to high): three of the compounds above.
row,Compound,AC50
19,Cc1cc(C)n(CC(O)Cn2cnc3c2c(=O)n(C)c(=O)n3C)n1 (configuration not stated),"0.0501 µM [rising, full curve, poor fit]"
14,N#Cc1c(-c2ccco2)nc(SCC(=O)Nc2cccc(Cl)c2)[nH]c1=O,"12.6 µM [rising, partial curve]"
7,CCN(CCCNC(=O)CNC(=O)Cn1cnc2ccccc2c1=O)c1cccc(C)c1,"0.112 µM [falling, full curve]"

# Following part:

row,Compound,AC50
1,COc1cc(OC)cc(-c2nc3ccccc3c(=O)o2)c1,"12.6 µM [falling, single point]"
2,O=C(CSc1nnc(Cc2cccs2)n1Cc1ccco1)Nc1cc(Cl)cc(Cl)c1,"1 µM [rising, full curve, poor fit]"
3,N#CC(=C1CCCC1)c1nc(-c2ccccc2O)cs1,"10 µM [falling, partial curve]"
4,CC1CCc2nn(CC(=O)NCCN3CCCCC3C)cc2C1 (configuration not stated),"1.26 µM [falling, full curve, poor fit]"
5,CCn1c(Cc2ccccc2)nnc1SCC(=O)Nc1nc2ccccc2s1,"31.6 µM [rising, single point]"
6,COc1ccc(OC)c2c(N3CC(C)OC(C)C3)cc(C(F)(F)F)nc12 (configuration not stated),"3.16 µM [falling, full curve, poor fit]"
7,CCN1CCN(Cc2c(O)ccc3c(=O)c(-c4ccc(OC)c(OC)c4)c(C(F)(F)F)oc23)CC1,"0.316 µM [rising, full curve, poor fit]"
8,O=C1SC(SCc2ccccc2)=N/C1=C\c1ccco1,"0.794 µM [falling, single point]"
9,CC1CCN(C(=O)Cn2c(SCC(=O)Nc3nccs3)nc3ccccc32)CC1,"0.02 µM [falling, full curve, poor fit]"
10,Cn1c(=O)[nH]c(=O)c2[nH]c(N(Cc3ccccc3)Cc3ccccc3)nc21,"0.0447 µM [falling, full curve]"
11,COCCNC(=O)NC1(C(F)(F)F)Oc2ccc(Cl)cc2O1 (configuration not stated),"0.0501 µM [falling, full curve, poor fit]"
12,O=C(NCc1cccs1)c1cc(C2CC2)on1,"0.447 µM [falling, full curve, poor fit]"
13,CC(=O)c1c(C)nc(C)nc1NC(=O)Cc1ccccc1,"0.01 µM [falling, full curve, poor fit]"
14,COc1cccc(C(=O)CN2CCC(NC(=O)NC3CCCCC3)CC2)c1,"4.47 µM [falling, full curve, poor fit]"
15,CC(C)c1cc(C(=O)Nc2cc(Cl)ccc2O)no1,"0.316 µM [falling, full curve, poor fit]"
16,Nc1c(C(=O)Nc2ccccc2)sc2nc3c(c(-c4ccco4)c12)CCC3,"0.0316 µM [rising, full curve, poor fit]"
17,N#CC(=C=[N-])C1=C(C#N)C(c2ccccc2F)C([n+]2ccccc2)C(O)(C2CC2)N1 (configuration not stated),"15.8 µM [rising, single point]"
18,O=C(NC1CCCC1)C1CCCN(S(=O)(=O)c2cccc3cccnc23)C1 (configuration not stated),"35.5 µM [falling, single point]"
19,CCCOC1(NC(=O)c2ccccc2)C(C)=CC(=O)C=C1C,"39.8 µM [falling, partial curve, poor fit]"
20,O=C(NCCN1CCOCC1)C1CC(=O)N(c2ccc(F)c(Cl)c2)C1 (configuration not stated),"0.00398 µM [falling, full curve, poor fit]"
21,Cc1ccc(C(C(=O)NC2CCCCC2)N2CCCC2)cc1 (configuration not stated),"3.16 µM [falling, single point]"
